Results: patent publication US11312718B2, “Formulations of (S)-3-(1-(9H-purin-6-ylamino)ethyl)-8-chloro-2-phenylisoquinolin-1(2H)-one” (Infinity Pharmaceuticals, Inc., priority 2011, dated 2022)
For at least one compound, name, drawing or mass did not settle the structure.

What was measured:
[1] = tested on: Purified B-cells stimulated with lipopolysaccharide or an anti-CD40 antibody and interleukin 4; assay: B-cell assay (in vitro B-cell antibody production); type: cell-based, Mice; details: mTOR inhibitor alone
PI3K/Akt/mTor signaling = assay: Kinase signaling in blood (phosflow); type: cell-based; details: anti-CD3 stimulated cells
[2] = tested on: haematological malignancies; details: cited from earlier work

| SMILES | IgG and IgE response [1] | Akt phosphorylation (PI3K/Akt/mTor signaling) | S6 phosphorylation (PI3K/Akt/mTor signaling) | lymph node reduction and redistribution of lymphocytes ([2]; CLL patients) | activity in mantle cell lymphoma and refractory non Hodgkin's lymphoma ([2]; Single agent) | activity in CLL ([2]; patients with poor prognostic characteristics) |
| --- | --- | --- | --- | --- | --- | --- |
| CO[C@H]1C[C@@H]2CC[C@@H](C)[C@@](O)(O2)C(=O)C(=O)N2CCCC[C@H]2C(=O)O[C@H]([C@H](C)C[C@@H]2CC[C@@H](O)[C@H](OC)C2)CC(=O)[C@H](C)/C=C(\C)[C@@H](O)[C@@H](OC)C(=O)[C@H](C)C[C@H](C)/C=C/C=C/C=C/1C [rapamycin] | little to no substantial effect | enhances | inhibits | – | – | – |
| CC[C@H](Nc1ncnc2[nH]cnc12)c1nc2cccc(F)c2c(=O)n1-c1ccccc1 [CAL-101] | – | – | – | induces rapid lymph node reduction and redistribution of lymphocytes into the circulation | active | showed activity in CLL |
